Source: the supplement of paper PMC12578635
This is one part of the list. No stated cut-off is given here; in the data, active = 150% or more and inactive = the rest. Many values rest on one well or one pass, so single values are uncertain.

Each molecule was assayed on Staphylococcus aureus JE2-lux inside RAW 264.7 macrophages (assay: intracellular bacterial bioluminescence relative to DMSO vehicle; higher = higher intracellular bacterial metabolic activity). Details: 10 µM; treatment time 4 h; gentamicin 50 µg/ml.

Intracellular bacterial bioluminescence, inactive:
Cc1nc(-c2cccs2)c(CC(=O)NCc2ccc(Cl)cc2)s1 66%
Cc1ccccc1CNc1nc(NCCO)nc2c1cnn2C 113%
CCOC(=O)c1c(NC(=O)CSc2nnc3ncccn23)sc(C)c1C 22.1%
Cc1nc2ccc(NC(=O)c3cccc(NS(=O)(=O)c4ccc(F)cc4)c3)cc2s1 100%
O=C(Cn1c(=O)n(CCc2ccccc2)c(=O)c2c3c(sc21)CCCC3)Nc1ccc(F)c(F)c1 98.3%
Cc1cc2cc3c(cc2nc1NCCNC(=O)c1ccco1)OCCO3 97.5%
CCOC(=O)c1cnc2cc(OC)c(OC)cc2c1O 123%
COc1ccc(OC)c(Nc2ncc3c(n2)CCNC3)c1 101%
Cn1c2c(c(=O)[nH]c1=O)C(c1ccncc1)C1=C(CC(C)(C)CC1=O)N2 (configuration not stated) 94%
Cc1cc(=O)[nH]c(N2CCN(C(=O)N3CCCCC3)CC2)n1 96.6%
Cc1ccc2c(c1)C(=O)C(=O)N2CCn1c2ccccc2c2nc3ccccc3nc21 80.7%
Cc1nnc2ccc(C(=O)N3CCN(Cc4ccccc4)CC3)cn12 124%
Cc1cc(NC(=O)COc2ccccc2F)n(-c2ncnc3c2cnn3-c2cccc(C)c2C)n1 127%
Cc1cc(C(=O)NCc2c[nH]nc2C)c2cccc(-c3ccc(F)cc3)c2n1 107%
CCN(CC)c1cc(C(=O)O)c2cc(NC(=O)CC(C)C)ccc2n1 120%
CC1CN(S(=O)(=O)c2ccc(NC(=O)CCN3C(=O)c4ccccc4C3=O)cc2)CC(C)O1 (configuration not stated) 72.5%
O=C(c1ccco1)N1CCN(c2ncnc3c(-c4ccc(Cl)cc4)nsc23)CC1 105%
Cc1ccc(C2C3=C(CC(C)(C)CC3=O)Nc3nc(SCCC(C)C)[nH]c(=O)c32)s1 (configuration not stated) 106%
Cc1nnc(SCC(=O)Nc2ccc3c(c2)OCCO3)s1 114%
Cc1sc2nc(SCC(=O)NCCOCCO)nc(N)c2c1C 108%
CC1CCc2nc3ncn(CC(=O)NC4CCCC4)c(=O)c3cc2C1 (configuration not stated) 104%
NS(=O)(=O)c1ccc(NC(=O)CN2C(=O)SC(=C3CCCCC3)C2=O)cc1 72.7%
Cc1cccc(NC(=S)N2CCC(n3c(C)nc4cc(F)ccc43)CC2)c1C 72.8%
Cc1cc2cc(CCNC(=S)Nc3ccccc3F)c(=O)[nH]c2cc1C 65.9%
CCS(=O)(=O)c1cccc(C(=O)Nc2cccc(-c3nc4ccccc4o3)c2)c1 41.8%
CCn1nc(C)c2ccnc(N3CCC(C(=O)N4CCN(C5CCN(C)CC5)CC4)CC3)c21 113%
Cc1ccc(C(=O)Nc2ccccc2-c2nc3ccccc3[nH]c2=O)cc1 94%
CCOC(=O)c1cc(NC(=O)CSc2nnc3cc(C)c4ccccc4n23)cc(C(=O)OCC)c1 80.3%
C=CCNC(CC(=O)Nc1ccc(O)cc1C)C(=O)O (configuration not stated) 111%
O=C(NCc1c(F)cccc1F)C(=O)Nc1cc(F)ccc1F 81.5%
O=C(N1CCc2nc(N3CCCC3)[nH]c(=O)c2C1)C1(c2ccc(Cl)cc2)CCC1 98.3%
COc1ccc(NS(=O)(=O)c2cn(C)nc2C)cc1NC(=O)CN1CCCC1 107%
Cc1ccc(N(C(=O)c2csnn2)C(C(=O)NC(C)(C)C)c2ccncc2)cc1C (configuration not stated) 109%
Cc1cccn2c(=O)c(/C=C(\C#N)C(=O)NC3CCCC3)c(Oc3ccccc3F)nc12 86.5%
CCc1ccc(C2NC(=O)NC3=C2C(=O)CCC3)cc1 (configuration not stated) 104%
COc1cc(Nc2ncnc3c(-c4ccccc4)noc23)cc(OC)c1 92.5%
CCOC(=O)c1sc2nc3c(c(-c4ccc(OC)cc4)c2c1N)CCC3 93.3%
Cc1noc2ncnc(NCCN(C)C3CCCCC3)c12 108%
CN(Cc1ccccc1)S(=O)(=O)c1ccc(C(=O)Nc2cc(C(F)(F)F)ccc2Cl)cc1 127%
O=C(NCc1ccc(F)cc1)C1CCN(c2ccc3nnc(-c4ccccc4Cl)n3n2)CC1 18.6%
COc1ccc(C)cc1NC(=O)N1CCC(c2nnc(C(=O)Nc3cccc(F)c3)s2)CC1 112%
CCCCOc1ccc(C(=O)CSc2nc3c([nH]2)c(=O)n(C)c(=O)n3C)cc1 98.6%
CCOC(=O)c1c(NC(=O)c2ccc(N(C)C)cc2)sc2c1CC(C)(C)NC2(C)C 89.5%
COc1cccc(NC(=O)NNC(=O)c2ccc3c(c2)NC(=O)C(C)(C)O3)c1 119%
COc1ccccc1CNS(=O)(=O)c1cc(-c2ccno2)oc1C 57.8%
Cc1ccc(Cc2cnc(NC(=O)C3Cc4ccc(C)cc4C(=O)O3)s2)cc1 (configuration not stated) 101%
C=CCNc1nnc(SCC(=O)Nc2ccccc2F)c2ccccc12 76.7%
O=C(O)CC1C(=O)NCCN1Cc1ccc2ccccc2c1 (configuration not stated) 85.6%
COc1cccc2c(=O)cc(C)n(CC(=O)NCc3ccccc3)c12 25.9%
N#Cc1ccccc1Cn1c(=O)n(CC(=O)NCc2ccccc2Cl)c(=O)c2sccc21 15.1%
N#C/C(=C/c1ccc(O)c([N+](=O)[O-])c1)c1nc(-c2ccc([N+](=O)[O-])cc2)cs1 106%
COC(=O)c1ccc(CSc2nc(N)cc(=O)[nH]2)cc1 99.3%
CCOC(=O)Cc1csc(NC(=O)CSc2nnc3ccccn23)n1 107%
Cc1[nH]c2ccccc2c1SCC(=O)Nc1ccc(F)cc1 83.8%
Cc1nc(N2CCC(C(=O)NCCc3ccc(S(N)(=O)=O)cc3)CC2)c2c(C)c(C)oc2n1 122%
CCOc1ccc(-c2nc3c(c(=O)[nH]2)Cc2cc(Cl)ccc2O3)cc1 115%
CCOc1ccc(N2C(=O)c3ccccc3C2C(=O)NCCC(C)C)cc1 (configuration not stated) 82.8%
COc1ccc(-c2cnc(NC(=O)NC(C)C)n2C)cc1 120%
CCOC(=O)c1ccccc1NC(=O)CSc1ccnc2c1c(=O)n(C)c(=O)n2C 123%
Cc1nc2c3ccccc3n(CC(=O)Nc3ccc4c(c3)OCO4)c(=O)n2n1 108%
O=C1Oc2ccccc2C(=O)/C1=C/Nc1cccc(Cl)c1 70.1%
Cc1cc(C)c2cc(C)c3nnc(SCC(=O)Nc4nnc(C)s4)n3c2c1 114%
COc1ccccc1-c1noc(-c2ccc[nH]c2=O)n1 115%
Cc1ccc2nc(NC(=O)c3ccc(-c4nc5ccccc5s4)s3)sc2c1 98.8%
CC(C)(CCl)C(=O)Nc1c(C(N)=O)oc2ccccc12 101%
COc1cccc(Nc2nc(NCc3ccc(C)cc3)nc3c2cnn3C)c1 122%
COc1ccc(OC)c(Nc2nc(NCc3ccco3)nc(N)c2[N+](=O)[O-])c1 45.6%
Cc1cc2nc(NC(=O)/C=C/c3cccc([N+](=O)[O-])c3)sc2cc1C 134%
O=C(O)/C=C\C(=O)NNC(=O)CSc1nc2ccccc2[nH]1 96.4%
O=C(CSc1nc(=O)n2ccccc2n1)Nc1ccc2c(c1)OCO2 81.6%
CCOc1ccc2[nH]c(=O)c(CN(CCO)C(=O)Nc3ccc(C)cc3)cc2c1 70.2%
Cc1cc(C)n2ncc(C(=O)N3CCN(c4ccccn4)CC3)c2n1 113%
CCNS(=O)(=O)c1cc(-c2cc(C(=O)NC3CCCCC3)n[nH]2)ccc1OC 68.1%
Cc1ccc(-c2nc3ncccn3c2NC(=O)c2cc3ccccc3oc2=O)cc1 96.6%
Cc1cccc(C(=O)Nc2sc3c(c2C(N)=O)CC(C)CC3)c1 (configuration not stated) 98.8%
COc1ccccc1C(CNC(=O)c1cc(-c2ccccc2)on1)N1CCC(C)CC1 (configuration not stated) 114%
CCOc1ccc(NC(=O)CC2SC(=N)NC2=O)c([N+](=O)[O-])c1 (configuration not stated) 118%
CCCc1cc(O)nc(SCC(=O)N2CCc3ccccc3C2)n1 92.3%
CCCn1ncc(C)c1NC(=O)Cn1nc2n(C)c3ccccc3n2c1=O 57.5%
COc1ccccc1CNC(=O)C(C)n1nc(-c2cc(C)oc2C)cc(N)c1=O (configuration not stated) 88.2%
COc1ccc(C(=O)c2sc3nc4c(cc3c2N)C(=O)CCC4)cc1 98.3%
CCNC(=S)NCCCNc1nc2c(C)cccc2cc1C#N 98.5%
Cc1onc(-c2ccncc2)c1C(=O)N(C)Cc1nc2cc(Cl)ccc2[nH]1 124%
COc1ccc(CCN2C(=O)C3N=NN(c4ccccc4)C3C2=O)cc1OC (configuration not stated) 82.1%
COC(=O)c1c(NC(=O)CC2Sc3ccccc3NC2=O)sc(C)c1C (configuration not stated) 108%
O=C(Nc1cccc(-c2ccc3nncn3n2)c1)c1ccc(Cl)nc1 123%
CC(CCc1ccccc1)NC(=O)C1CCCN(c2nccnc2Oc2ccccc2)C1 (configuration not stated) 47%
CCOc1ccc2cc(C#N)c(SCC(=O)NCCc3ccccc3)nc2c1 91.9%
COc1ccc(NC(=O)N2CCC(c3nc4ccccc4o3)CC2)cc1 92.3%
CCN(CCCNC(=O)c1c(-c2ccccc2)nnc2ccc(C)cc12)c1ccccc1 83.9%
CCc1ccc(CNC(=O)c2cc3c(=O)n(Cc4cccnc4)ccc3nc2C)cc1 78%
CCN(CC)S(=O)(=O)c1ccc2c3c(cccc13)C(=O)N2C(=O)c1ccncc1 113%

An excerpt from above in order of molecular weight, descending:
Intracellular bacterial bioluminescence, inactive:
N#Cc1ccccc1Cn1c(=O)n(CC(=O)NCc2ccccc2Cl)c(=O)c2sccc21 15.1%
CC(CCc1ccccc1)NC(=O)C1CCCN(c2nccnc2Oc2ccccc2)C1 (configuration not stated) 47%
CCOC(=O)c1c(NC(=O)CSc2nnc3ncccn23)sc(C)c1C 22.1%
Cc1nc2c3ccccc3n(CC(=O)Nc3ccc4c(c3)OCO4)c(=O)n2n1 108%
COc1ccc(C(=O)c2sc3nc4c(cc3c2N)C(=O)CCC4)cc1 98.3%
CCN(CC)c1cc(C(=O)O)c2cc(NC(=O)CC(C)C)ccc2n1 120%
COc1ccccc1-c1noc(-c2ccc[nH]c2=O)n1 115%
